Data on one molecule can be found in publication PMC12483965.

The test concerns the target T1, LA5-nLUC (rice (Oryza sativa L. subsp. japonica, ZH11 cDNA)) (UniProt Q8H8V7).
T1 sequence: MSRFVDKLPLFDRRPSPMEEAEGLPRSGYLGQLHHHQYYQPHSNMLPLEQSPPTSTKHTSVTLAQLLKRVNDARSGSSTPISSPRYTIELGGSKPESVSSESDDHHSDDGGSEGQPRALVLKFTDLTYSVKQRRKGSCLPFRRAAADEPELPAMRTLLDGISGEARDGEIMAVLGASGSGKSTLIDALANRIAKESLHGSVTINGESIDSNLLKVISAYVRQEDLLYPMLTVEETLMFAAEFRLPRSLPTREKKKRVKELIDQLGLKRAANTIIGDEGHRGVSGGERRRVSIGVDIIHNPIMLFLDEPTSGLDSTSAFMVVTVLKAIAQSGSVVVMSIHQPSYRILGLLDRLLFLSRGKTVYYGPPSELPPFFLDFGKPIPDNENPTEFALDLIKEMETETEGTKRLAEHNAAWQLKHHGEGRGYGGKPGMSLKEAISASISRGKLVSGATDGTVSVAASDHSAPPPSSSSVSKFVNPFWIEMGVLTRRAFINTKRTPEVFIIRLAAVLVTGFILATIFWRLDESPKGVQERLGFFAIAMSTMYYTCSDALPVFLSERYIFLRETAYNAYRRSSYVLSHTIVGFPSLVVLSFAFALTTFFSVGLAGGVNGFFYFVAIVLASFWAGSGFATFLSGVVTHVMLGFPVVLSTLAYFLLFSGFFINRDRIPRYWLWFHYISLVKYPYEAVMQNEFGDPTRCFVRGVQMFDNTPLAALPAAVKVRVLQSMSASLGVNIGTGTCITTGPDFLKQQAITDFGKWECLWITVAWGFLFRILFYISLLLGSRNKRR
Nature of the test: split reporter; luciferase complementation imaging (LCI): LA5-nLUC and OsPIN3t-cLUC co-injected into N. benthamiana leaves, beetle luciferin as substrate.

No constants are given. Whether binding was seen depends on the method and setting. Binding seen in cells or lysates may run through a third protein. Some entries that bind do so weakly or less than the wild type. Tags and fused reporters may be left off the sequences shown.

B1: OsPIN3t-cLUC (protein, UniProt Q5VP70 1-618)
chain: MISGHDFYTVMAAVVPLYVAMFLAYGSVRWWGIFTPDQCSGINRFVAIFAVPLLSFHFISTNDPYAMNLRFLAADTLQKLLVLAGLAAWSRLPSRTGAPRLDWSITLFSLSTLPNTLVMGIPLLIAMYGPYSGSLMVQIVVLQCIIWYTLMLFLFEFRAARMLIADQFPDTAASIVSLHVDPDVVSLEGGHAETEAEVAADGRLHVTVRRSSVSRRSLLVTPRPSNLTGAEIYSLSSSRNPTPRGSNFNHADFFAMVGGGPPPPTPAAVRGSSFGASELYSLQSSRGPTPRQSNFDEHSARPPKPPATTTGALNHDAKELHMFVWSSSASPVSEVSGLPVFSGGGGGGALDVGAKEIHMVIPADLPQNNGSGKEHEEYGAVALGGGGGGENFSFGGGKTVDGAEAVDEEAALPDGLTKMGSSSTAELHPKVVDVDGPNAGGGAAGAGQYQMPPASVMTRLILIMVWRKLIRNPNTYSSLLGLAWSLVAFRWHVSMPAIVEKSISILSDAGLGMAMFSLGLFMALQPSIIACGKSAAVVSMAVRFLAGPAVMAAASIAIGLRGTLLHVAIVQAALPQGIVPFVFAKEYNVHPAILSTAVIFGMLIALPITLLYYILLGL
For the molecule B1, the binding entry is listed as “binds”.
